Values of other authors as cited in patent US8883830B2, “Topical therapy for the treatment of migraines, muscle sprains, muscle spasms, spasticity and related conditions” (Afgin Pharma LLC., priority 2003, dated 2014).
Some entries share one result that the patent states for a list of compounds.

CN(C)CCc1c[nH]c2ccc(C[C@H]3COC(=O)N3)cc12 [zolmitriptan]
oral bioavailability: 40-45%
